These are yes or no findings as the source states them, for the method shown. For some assays here: In cells and extracts the contact can be indirect. Some results given as binding are weak or reduced against the parent protein; the word gives no strength. Tags and fused reporters may be left off the sequences shown.
T1: FLAG-tagged SETD7 (SET domain containing lysine methyltransferase 7) (human) (UniProt Q8WTS6)
T1 sequence: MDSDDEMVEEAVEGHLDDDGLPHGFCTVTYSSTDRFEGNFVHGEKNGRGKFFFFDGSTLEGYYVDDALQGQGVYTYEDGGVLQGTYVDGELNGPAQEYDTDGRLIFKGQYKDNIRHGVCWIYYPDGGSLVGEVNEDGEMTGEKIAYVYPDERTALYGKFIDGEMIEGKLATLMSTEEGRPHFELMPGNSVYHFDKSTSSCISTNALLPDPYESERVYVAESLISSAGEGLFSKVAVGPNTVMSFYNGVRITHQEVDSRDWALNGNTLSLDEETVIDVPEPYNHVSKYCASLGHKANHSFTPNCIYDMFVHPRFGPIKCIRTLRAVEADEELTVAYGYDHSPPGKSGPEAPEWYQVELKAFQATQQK

T2: FLAG-tagged human NFE2L2 recombinant protein (human) (UniProt Q16236)
T2 sequence: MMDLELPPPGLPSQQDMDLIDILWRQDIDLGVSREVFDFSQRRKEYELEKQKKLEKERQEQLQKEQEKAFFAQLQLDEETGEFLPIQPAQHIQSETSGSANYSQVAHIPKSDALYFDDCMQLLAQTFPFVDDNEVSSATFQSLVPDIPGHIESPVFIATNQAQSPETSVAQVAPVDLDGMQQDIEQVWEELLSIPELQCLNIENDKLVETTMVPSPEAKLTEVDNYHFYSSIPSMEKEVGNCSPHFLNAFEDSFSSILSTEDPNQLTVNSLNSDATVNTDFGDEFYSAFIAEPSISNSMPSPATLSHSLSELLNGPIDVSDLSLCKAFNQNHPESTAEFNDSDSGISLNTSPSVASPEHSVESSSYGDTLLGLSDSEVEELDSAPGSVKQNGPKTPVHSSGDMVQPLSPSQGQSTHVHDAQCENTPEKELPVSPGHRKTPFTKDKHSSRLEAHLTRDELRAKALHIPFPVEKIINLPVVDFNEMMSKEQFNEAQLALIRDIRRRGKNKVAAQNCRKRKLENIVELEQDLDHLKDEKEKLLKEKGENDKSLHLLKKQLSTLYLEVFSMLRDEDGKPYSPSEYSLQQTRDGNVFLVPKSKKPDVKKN

B1: NFE2L2 (nuclear factor erythroid 2-like 2), untagged (protein, UniProt Q16236 1-605)
chain: T2 sequence
B2: GST-tagged human SETD7 recombinant protein (enzyme, UniProt Q8WTS6 1-366)
chain: T1 sequence

Legend:
[1] = target: T1, FLAG-tagged SETD7 (SET domain containing lysine methyltransferase 7) (human); experiment: co-IP; Anti-DDK (FLAG) magnetic beads; lysates of HEK293 cells cotransfected with FLAG-tagged SETD7 and untagged NFE2L2, precleared; incubated overnight at 4 °C; western blot with anti-NFE2L2
[2] = target: T2, FLAG-tagged human NFE2L2 recombinant protein (human); experiment: pull-down; FLAG-tagged NFE2L2 held on Anti-DDK magnetic beads (1 hour, room temperature); GST-tagged SETD7 added for another hour at room temperature; 4 washes; western blot with anti-SETD7 and anti-NFE2L2; cell-free; both purified

| Binder | binding [1] | binding [2] |
| --- | --- | --- |
| B1 | binds | – |
| B2 | – | binds |

Source: publication PMC4593030
